Test results published in PubChem BioAssay AID1625 (Sanford-Burnham Center for Chemical Genomics, 2009).
Screen size: about 190,000 compounds; about 570 (0.3%) were called active. The inconclusive results got no clear call from the source; some entries with a clear call stand among them for comparison.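 Rule for the calls: active = z-score above 3 at 5 µM with at least 500 cells counted in the well; inconclusive = wells under 500 cells, flagged as cytotoxic or low count; inactive = the rest.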

Assay: up-regulation of insulin promoter-GFP reporter – imaging, high-content screening, mouse beta cells (AID 1625)
Details: MIN6 insulin promoter-GFP reporter, at 5 µM, active compounds read high

| SMILES | z-score |
| --- | --- |
| CN1\C(=C/C=C/C=C/C=[N+](C)C)C(C)(C)c2ccccc21 | inconclusive: 14.1 |
| CCOc1ccc(C(=O)Nc2cc(C)c3c(=O)oc4ccccc4c3n2)cc1 | inconclusive: -2.06 |
| Cc1ccc2nsnc2c1NC(=O)c1cccc([N+](=O)[O-])c1 | inactive: 0.27 |
| CCOc1ccc(NC(=S)N2CCn3c(nc4ccccc43)C2)cc1 | inactive: -0.32 |
| Cc1cc(N2C(=O)c3ccccc3C2=O)n(C)n1 | active: 3.77 |
| C=C1C(=O)C=C2CN(C(=O)c3ccccc3)[C@@](Cc3ccc(F)cc3)(C(=O)OC)[C@@H]12 | inconclusive: -3.03 |
| CCCNC(=O)N1CCN(c2nc(C(C)C)c3c(c2C#N)CC(C)(C)OC3)CC1 | inconclusive: -1.26 |
| COc1cccc2c(=O)n(CC(=O)Nc3cccc(F)c3)ccc12 | active: 3.43 |
| COc1ccc(C)cc1N1C(=N)/C(=C2/Nc3ccccc3S2)C(c2ccccc2)C1=O (stereo unspecified) | inconclusive: -4.02 |
| FC(F)Oc1ccc(-n2cc(-c3ccccc3)[n+]3c2CCCCC3)cc1 | inconclusive: -3.65 |
| CCOC(=O)/C=C1\SCC(=O)N1CC(=O)N1CCOCC1 | inactive: -0.61 |
| c1csc(-c2csc3ncnc(NCCCN4CCOCC4)c23)c1 | inconclusive: -7.49 |
| Cc1ccc2oc(=O)c3cnn(CC(=O)NCCN(C)C)c3c2c1 | inactive: 0.29 |
| CC(=O)/C(=N/Nc1cccc(C)c1)N1CCOCC1 | inactive: -0.58 |
| CCCCCc1ccc(OCCCC[n+]2cccc(C)c2)c(CCCCC)c1 | inconclusive: -5.19 |
| C[N+](C)(C)C/C=C1/COCO1 | inactive: 1.09 |
| O=C(CSc1nnc(CN2CCOCC2)n1-c1ccc(Cl)cc1)Nc1cc(Cl)ccc1O | inactive: -0.69 |
| Cc1ccc(C(=O)Nc2ccc(Cl)cc2C)c(Cl)c1 | inactive: -0.1 |
| CC[n+]1c(/C=C/N(C)c2ccccc2)oc2ccc(F)cc21 | inconclusive: -0.53 |
| CCOC(=O)c1cc2c(C)n(-c3ccc(C)cc3)c(C)c2ccc1=O | inconclusive: -1.54 |
| N/C(=N\OC(=O)CC1CCCCC1)c1cccc([N+](=O)[O-])c1 | inactive: -0.38 |
| Cc1ccc(-c2cc3cccc[n+]3cc2-c2ccc(C)cc2)cc1 | inconclusive: -2.11 |
| O=C(Nc1ccc(S(=O)(=O)N2CCCCC2)cc1)c1ccc(CN2CCc3ccccc3C2)cc1 | inconclusive: -3.59 |
| CNC(=O)C1CC(=O)N/C(=N/N=C(\C)c2cccs2)S1 (stereo unspecified) | active: 3.72 |
| c1ccc(CSC2=NNC(c3ccccn3)S2)cc1 (stereo unspecified) | inconclusive: -0.31 |
| Cc1ccc(C[n+]2cccc(-c3ccccc3)c2)c(C)c1 | inconclusive: -5.02 |

Not a retest: an excerpt of the list.

| SMILES | z-score |
| --- | --- |
| Cc1cc(N2C(=O)c3ccccc3C2=O)n(C)n1 | active: 3.77 |
| C=C1C(=O)C=C2CN(C(=O)c3ccccc3)[C@@](Cc3ccc(F)cc3)(C(=O)OC)[C@@H]12 | inconclusive: -3.03 |
| CCCNC(=O)N1CCN(c2nc(C(C)C)c3c(c2C#N)CC(C)(C)OC3)CC1 | inconclusive: -1.26 |
| COc1cccc2c(=O)n(CC(=O)Nc3cccc(F)c3)ccc12 | active: 3.43 |
| COc1ccc(C)cc1N1C(=N)/C(=C2/Nc3ccccc3S2)C(c2ccccc2)C1=O (stereo unspecified) | inconclusive: -4.02 |
| FC(F)Oc1ccc(-n2cc(-c3ccccc3)[n+]3c2CCCCC3)cc1 | inconclusive: -3.65 |
| CCOC(=O)/C=C1\SCC(=O)N1CC(=O)N1CCOCC1 | inactive: -0.61 |
